In PMC3566157:
No constants are given. Whether binding was seen depends on the method and setting. Some binding calls cover weakened binding; strength is not graded here.

Sequences of proteins named here, by UniProt entry; tags and fusion partners are left off. Residues count along the entry.
UniProt Q02763, residues 23-1124: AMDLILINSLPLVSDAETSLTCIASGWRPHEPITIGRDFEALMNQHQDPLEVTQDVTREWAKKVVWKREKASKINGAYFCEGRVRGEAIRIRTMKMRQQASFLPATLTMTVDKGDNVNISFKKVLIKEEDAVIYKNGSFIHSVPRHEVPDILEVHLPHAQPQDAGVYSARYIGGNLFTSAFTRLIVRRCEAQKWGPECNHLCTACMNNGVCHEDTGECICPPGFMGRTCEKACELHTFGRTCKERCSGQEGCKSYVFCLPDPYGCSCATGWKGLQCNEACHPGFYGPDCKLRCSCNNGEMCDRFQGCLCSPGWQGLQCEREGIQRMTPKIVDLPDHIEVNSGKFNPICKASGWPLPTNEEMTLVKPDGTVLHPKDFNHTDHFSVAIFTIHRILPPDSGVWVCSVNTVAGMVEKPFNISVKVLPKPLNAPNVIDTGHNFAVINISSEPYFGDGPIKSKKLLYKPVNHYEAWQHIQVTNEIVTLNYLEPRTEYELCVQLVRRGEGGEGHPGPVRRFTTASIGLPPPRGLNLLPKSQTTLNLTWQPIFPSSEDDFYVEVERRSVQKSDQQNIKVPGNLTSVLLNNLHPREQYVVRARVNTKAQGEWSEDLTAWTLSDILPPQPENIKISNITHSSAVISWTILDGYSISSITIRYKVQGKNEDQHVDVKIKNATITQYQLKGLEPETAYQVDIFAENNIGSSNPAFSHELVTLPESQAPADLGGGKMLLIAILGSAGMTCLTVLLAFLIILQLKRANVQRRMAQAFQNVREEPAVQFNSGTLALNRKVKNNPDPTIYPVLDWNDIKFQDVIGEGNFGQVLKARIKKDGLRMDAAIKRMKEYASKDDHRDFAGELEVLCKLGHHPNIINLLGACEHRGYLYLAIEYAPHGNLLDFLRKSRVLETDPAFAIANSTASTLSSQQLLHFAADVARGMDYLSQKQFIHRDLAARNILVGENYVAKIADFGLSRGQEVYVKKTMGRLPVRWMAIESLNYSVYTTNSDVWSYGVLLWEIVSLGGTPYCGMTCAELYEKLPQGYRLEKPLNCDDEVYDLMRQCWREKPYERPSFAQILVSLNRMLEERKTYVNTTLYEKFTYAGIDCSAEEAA
UniProt O15123, residues 19-496: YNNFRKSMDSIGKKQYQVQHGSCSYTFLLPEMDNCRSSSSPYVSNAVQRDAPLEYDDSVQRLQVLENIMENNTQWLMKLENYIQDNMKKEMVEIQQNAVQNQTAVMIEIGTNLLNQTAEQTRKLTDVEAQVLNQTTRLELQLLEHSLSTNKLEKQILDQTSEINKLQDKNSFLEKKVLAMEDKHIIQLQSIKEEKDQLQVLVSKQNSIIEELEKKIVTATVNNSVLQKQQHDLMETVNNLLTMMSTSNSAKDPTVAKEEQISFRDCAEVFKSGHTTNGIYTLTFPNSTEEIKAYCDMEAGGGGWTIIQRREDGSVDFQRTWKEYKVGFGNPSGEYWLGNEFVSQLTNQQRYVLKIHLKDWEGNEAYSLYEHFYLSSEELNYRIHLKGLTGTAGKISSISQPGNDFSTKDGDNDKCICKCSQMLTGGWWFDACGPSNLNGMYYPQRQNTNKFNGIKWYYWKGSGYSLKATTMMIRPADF

Target: human Tie2 on HEK293-Tie2 cells (clone 22) (human) (UniProt Q02763)
Test: flow cytometry on cells; hAng-2 bound to hTie2 on HEK293-Tie2 cells, detected with a biotinylated non-interfering anti-human Ang-2 antibody and PE-labeled Streptavidin; Ang-2 antibodies titrated from 0.0025 to 10 ug/mL; only the binder purified

For “human Angiopoietin-2 (from UniProt O15123 19-496) (ligand)”, the binding was “binds”.
